Measurements from the supplement of paper PMC10849652.
Some of the results follow.

Amino acid sequences for entries named in this document (tags omitted). A change or cut given only in a name is not applied to a line headed by its entry.
UniProt O15031: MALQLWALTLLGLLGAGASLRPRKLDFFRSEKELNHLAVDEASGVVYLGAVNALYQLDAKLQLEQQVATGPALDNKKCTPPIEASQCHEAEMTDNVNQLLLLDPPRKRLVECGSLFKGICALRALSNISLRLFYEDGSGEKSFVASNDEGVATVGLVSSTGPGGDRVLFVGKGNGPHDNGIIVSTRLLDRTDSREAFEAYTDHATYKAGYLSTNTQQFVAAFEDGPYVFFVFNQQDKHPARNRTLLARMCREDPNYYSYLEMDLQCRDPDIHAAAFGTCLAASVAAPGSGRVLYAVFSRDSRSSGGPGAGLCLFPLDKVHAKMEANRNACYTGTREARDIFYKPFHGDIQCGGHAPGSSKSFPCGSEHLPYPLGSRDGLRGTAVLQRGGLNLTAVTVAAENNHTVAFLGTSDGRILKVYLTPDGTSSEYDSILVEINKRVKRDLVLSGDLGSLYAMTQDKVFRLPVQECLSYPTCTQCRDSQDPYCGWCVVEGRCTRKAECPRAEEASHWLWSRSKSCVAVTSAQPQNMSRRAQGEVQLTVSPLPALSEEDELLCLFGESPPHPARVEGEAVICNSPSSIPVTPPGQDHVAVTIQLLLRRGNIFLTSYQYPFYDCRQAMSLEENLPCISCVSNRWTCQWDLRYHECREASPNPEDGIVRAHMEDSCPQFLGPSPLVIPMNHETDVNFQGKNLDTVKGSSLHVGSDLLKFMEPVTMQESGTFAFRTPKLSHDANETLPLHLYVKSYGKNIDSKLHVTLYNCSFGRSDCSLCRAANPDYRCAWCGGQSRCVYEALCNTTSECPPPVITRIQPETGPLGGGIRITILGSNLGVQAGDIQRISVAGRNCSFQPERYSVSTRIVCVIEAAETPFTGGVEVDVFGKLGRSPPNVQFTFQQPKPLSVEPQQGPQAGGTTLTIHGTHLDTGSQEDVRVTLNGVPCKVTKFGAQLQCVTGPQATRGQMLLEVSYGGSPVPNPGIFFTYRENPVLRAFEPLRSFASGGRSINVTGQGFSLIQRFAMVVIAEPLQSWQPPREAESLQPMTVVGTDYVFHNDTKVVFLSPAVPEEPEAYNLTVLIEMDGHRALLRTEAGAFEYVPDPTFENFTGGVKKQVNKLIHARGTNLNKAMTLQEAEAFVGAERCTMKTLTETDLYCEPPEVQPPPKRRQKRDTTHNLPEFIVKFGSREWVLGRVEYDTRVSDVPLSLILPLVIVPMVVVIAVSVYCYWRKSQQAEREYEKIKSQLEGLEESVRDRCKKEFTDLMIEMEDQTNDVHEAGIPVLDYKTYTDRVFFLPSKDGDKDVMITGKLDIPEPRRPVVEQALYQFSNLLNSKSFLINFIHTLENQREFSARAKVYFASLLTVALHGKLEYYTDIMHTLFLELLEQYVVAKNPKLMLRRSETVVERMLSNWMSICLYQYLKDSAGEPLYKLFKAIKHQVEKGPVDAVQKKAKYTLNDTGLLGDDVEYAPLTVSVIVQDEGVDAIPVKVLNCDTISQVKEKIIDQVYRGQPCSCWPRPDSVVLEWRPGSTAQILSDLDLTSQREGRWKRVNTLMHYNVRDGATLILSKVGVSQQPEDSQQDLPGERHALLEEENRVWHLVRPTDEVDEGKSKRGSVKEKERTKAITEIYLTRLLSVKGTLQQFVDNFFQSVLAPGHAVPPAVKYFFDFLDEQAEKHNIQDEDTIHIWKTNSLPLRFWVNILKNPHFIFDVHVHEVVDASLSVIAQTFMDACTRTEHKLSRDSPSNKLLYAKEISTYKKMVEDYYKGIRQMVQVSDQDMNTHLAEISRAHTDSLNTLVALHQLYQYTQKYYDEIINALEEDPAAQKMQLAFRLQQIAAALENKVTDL
UniProt P16435: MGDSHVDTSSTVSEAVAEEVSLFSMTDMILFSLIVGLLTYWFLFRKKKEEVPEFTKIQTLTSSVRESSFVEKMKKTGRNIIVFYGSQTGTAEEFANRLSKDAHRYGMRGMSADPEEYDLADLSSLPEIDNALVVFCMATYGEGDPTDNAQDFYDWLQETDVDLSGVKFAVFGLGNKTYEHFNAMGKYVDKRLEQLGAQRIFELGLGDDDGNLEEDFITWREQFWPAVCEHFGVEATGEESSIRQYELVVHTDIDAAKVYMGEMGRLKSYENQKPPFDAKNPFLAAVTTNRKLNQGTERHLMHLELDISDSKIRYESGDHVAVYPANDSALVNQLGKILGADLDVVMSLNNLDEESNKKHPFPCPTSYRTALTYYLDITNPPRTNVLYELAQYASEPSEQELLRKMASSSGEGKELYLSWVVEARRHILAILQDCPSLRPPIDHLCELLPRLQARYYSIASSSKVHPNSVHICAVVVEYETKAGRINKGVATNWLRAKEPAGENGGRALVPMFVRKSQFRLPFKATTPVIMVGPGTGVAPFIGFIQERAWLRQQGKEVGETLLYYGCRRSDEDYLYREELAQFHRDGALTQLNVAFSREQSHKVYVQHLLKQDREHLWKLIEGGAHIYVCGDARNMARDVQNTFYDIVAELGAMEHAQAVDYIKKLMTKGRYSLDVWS
UniProt P09884: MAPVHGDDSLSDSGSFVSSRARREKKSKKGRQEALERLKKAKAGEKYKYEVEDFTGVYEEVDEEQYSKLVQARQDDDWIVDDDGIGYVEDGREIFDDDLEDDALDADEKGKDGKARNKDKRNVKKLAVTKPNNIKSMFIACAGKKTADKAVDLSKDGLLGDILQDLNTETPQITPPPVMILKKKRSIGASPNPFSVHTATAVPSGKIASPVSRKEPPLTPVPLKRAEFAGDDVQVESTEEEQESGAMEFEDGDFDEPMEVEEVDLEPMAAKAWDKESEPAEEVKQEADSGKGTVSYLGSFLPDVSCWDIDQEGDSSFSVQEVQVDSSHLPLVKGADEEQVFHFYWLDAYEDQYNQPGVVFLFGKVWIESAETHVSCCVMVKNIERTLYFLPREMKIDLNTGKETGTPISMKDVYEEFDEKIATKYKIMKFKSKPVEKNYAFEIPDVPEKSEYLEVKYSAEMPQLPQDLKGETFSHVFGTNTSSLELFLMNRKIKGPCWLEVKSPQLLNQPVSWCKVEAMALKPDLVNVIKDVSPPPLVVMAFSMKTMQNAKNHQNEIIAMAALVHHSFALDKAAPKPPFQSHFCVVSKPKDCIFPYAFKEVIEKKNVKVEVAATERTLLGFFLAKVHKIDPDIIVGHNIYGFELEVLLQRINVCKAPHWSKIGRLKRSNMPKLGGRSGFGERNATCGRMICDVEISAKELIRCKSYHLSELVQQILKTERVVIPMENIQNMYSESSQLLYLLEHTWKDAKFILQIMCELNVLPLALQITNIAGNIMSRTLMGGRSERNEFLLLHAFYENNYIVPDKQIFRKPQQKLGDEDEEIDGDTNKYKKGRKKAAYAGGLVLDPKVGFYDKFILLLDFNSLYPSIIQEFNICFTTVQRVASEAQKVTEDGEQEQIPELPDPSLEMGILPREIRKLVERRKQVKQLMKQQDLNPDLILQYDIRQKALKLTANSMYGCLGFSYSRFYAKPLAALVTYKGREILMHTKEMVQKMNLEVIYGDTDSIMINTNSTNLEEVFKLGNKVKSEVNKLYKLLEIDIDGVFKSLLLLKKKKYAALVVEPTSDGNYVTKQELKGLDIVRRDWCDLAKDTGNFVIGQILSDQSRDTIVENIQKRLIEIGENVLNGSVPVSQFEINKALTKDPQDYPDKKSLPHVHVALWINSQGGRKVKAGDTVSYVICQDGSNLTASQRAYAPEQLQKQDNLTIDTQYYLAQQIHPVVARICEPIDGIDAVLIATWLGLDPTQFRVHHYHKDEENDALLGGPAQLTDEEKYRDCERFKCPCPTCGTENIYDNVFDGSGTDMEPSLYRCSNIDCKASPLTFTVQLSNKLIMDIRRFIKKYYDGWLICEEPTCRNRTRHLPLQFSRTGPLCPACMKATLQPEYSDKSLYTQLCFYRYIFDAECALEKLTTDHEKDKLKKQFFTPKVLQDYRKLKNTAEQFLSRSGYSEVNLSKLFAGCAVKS
UniProt Q9UHN1: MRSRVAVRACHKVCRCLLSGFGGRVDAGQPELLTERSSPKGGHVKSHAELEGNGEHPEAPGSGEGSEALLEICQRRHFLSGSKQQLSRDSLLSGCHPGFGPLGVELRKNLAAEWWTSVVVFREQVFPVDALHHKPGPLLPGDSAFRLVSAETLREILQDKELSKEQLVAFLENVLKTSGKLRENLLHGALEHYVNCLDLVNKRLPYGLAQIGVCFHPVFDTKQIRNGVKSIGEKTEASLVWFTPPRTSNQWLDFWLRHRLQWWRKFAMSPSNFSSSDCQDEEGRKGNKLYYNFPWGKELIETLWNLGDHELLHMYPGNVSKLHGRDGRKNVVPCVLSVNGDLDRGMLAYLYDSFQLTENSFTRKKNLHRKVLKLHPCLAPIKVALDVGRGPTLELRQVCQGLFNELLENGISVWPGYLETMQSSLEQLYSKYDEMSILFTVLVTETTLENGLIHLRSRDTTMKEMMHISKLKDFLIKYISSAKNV
UniProt Q8NAT1: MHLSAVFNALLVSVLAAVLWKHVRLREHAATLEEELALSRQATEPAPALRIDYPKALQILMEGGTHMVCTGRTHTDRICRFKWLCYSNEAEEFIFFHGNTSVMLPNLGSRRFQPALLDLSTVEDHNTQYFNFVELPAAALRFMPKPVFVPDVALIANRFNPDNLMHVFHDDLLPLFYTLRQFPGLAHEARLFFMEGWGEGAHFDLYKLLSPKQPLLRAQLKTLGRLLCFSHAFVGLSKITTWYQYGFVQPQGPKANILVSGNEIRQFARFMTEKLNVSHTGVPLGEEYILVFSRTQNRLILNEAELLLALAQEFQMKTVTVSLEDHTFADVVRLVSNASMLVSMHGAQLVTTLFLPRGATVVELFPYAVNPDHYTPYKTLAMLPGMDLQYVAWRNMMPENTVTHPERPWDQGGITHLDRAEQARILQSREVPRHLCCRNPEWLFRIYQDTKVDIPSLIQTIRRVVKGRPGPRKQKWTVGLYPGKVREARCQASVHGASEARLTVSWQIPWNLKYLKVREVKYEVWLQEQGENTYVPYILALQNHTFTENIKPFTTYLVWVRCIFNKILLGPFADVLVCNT
UniProt Q8IY17: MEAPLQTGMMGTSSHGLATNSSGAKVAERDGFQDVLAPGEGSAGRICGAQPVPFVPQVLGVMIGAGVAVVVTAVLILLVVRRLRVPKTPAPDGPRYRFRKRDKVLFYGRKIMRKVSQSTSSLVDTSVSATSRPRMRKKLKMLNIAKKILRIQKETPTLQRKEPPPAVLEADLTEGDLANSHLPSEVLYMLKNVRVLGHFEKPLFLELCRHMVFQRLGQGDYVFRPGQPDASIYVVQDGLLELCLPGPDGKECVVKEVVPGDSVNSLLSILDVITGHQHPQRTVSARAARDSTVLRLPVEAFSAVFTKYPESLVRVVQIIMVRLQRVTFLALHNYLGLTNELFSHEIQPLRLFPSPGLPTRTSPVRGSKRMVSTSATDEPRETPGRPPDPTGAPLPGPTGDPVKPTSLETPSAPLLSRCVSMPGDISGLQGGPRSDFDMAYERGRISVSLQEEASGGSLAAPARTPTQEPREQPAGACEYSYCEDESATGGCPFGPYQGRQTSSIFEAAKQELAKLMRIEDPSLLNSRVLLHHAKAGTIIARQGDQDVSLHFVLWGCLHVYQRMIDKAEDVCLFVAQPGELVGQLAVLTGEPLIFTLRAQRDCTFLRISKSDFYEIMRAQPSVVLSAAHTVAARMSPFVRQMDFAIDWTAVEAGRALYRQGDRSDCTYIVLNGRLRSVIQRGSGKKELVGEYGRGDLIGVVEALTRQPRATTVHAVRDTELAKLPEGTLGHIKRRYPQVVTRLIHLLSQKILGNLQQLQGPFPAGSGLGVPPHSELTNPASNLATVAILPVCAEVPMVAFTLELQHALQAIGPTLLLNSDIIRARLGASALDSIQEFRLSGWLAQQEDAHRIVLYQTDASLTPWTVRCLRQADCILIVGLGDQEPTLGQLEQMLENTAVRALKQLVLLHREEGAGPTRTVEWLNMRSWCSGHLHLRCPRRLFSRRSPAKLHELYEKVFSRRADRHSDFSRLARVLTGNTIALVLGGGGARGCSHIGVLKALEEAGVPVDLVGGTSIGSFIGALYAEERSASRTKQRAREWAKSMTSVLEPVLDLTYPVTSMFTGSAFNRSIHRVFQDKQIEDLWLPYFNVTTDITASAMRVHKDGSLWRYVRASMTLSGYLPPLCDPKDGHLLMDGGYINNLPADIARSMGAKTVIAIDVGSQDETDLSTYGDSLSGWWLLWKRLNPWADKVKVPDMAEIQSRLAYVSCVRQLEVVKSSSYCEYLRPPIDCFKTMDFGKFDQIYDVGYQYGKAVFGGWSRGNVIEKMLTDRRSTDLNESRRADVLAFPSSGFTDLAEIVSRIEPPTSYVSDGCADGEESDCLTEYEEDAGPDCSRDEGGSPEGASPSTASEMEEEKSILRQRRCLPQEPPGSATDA
UniProt Q9NR33: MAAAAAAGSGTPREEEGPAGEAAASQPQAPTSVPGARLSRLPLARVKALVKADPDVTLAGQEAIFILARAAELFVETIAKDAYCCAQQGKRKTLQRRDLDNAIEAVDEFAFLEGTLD

How the values were obtained:
Experiment in all cases: log2 fold change, soluble protein after heating vs DMSO (PISA); higher = thermal stabilisation; K562 cells, 10 uM, 30 min; active = over 0.2 and 3.5 SD of the protein, either way, in both replicates (recomputed)
[1] = compound: Cc1ccc(NC(=O)c2ccc(CN3CC[C@H](N(C)C)C3)c(C(F)(F)F)c2)cc1Nc1nccc(-c2cncnc2)n1 [bafetinib]
Method in brief: (§1)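 Quantification of soluble protein used TMTpro 16plex LC-MS/MS, with channel sums equalised. Samples were the supernatant after 21,000xg for 90 min of pooled aliquots from K562 cells (2×10^6 cells/mL) treated with 10 μM compound for 30 min, heated for 3 min over 48°C-58°C, and extracted in PBS with 0.5% NP-40 at 4°C. Values, from duplicates, describe thermal stability against control samples on a log2 fold-change scale.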

[2] = compound: Cc1cccc(CC(=O)N2CCc3c2ccc(-c2cn(C)c4ncnc(N)c24)c3F)n1
Method in brief: as §1

[3] = compound: Cc1cn(-c2cc(NC(=O)c3ccc(C)c(Nc4nccc(-c5cccnc5)n4)c3)cc(C(F)(F)F)c2)cn1 [nilotinib]
Method in brief: as §1

[4] = compound: Cc1nc(Nc2n[nH]c3c2CN(C(=O)N[C@H](CN(C)C)c2ccccc2)C3(C)C)c2sccc2n1
Method in brief: as §1

[5] = compound: Cc1nc(Nc2ncc(C(=O)Nc3c(C)cccc3Cl)s2)cc(N2CCN(CCO)CC2)n1 [dasatinib]
Method in brief: as §1

[6] = compound: Cc1ncc(-c2ccnc(Nc3ccc(S(C)(=O)=O)cc3)n2)n1C(C)C
Method in brief: as §1

[7] = compound: Cn1cc(-c2ccc3c(c2)CCN3C(=O)Cc2cccc(C(F)(F)F)c2)c2c(N)ncnc21
Method in brief: as §1

[8] = compound: Cn1cc(-c2ccc3nnc(C(F)(F)c4ccc5ncccc5c4)n3n2)cn1
Method in brief: as §1

[9] = compound: Cn1cncc1[C@@](N)(c1ccc(Cl)cc1)c1ccc2c(c1)c(-c1cccc(Cl)c1)cc(=O)n2C [tipifarnib]
Method in brief: as §1

[10] = compound: FC(F)(F)c1ccc(/C=C/c2nc(COc3ccc(CCCCn4ccnn4)cc3)co2)cc1 [mubritinib]
Method in brief: as §1

Target | log2 fold change [1] | log2 fold change [2] | log2 fold change [3] | log2 fold change [4] | log2 fold change [5] | log2 fold change [6] | log2 fold change [7] | log2 fold change [8] | log2 fold change [9] | log2 fold change [10]
PLXNB2 (UniProt O15031) | inactive: -0.019 | inactive: 0.005 | inactive: 0.001 | inactive: -0.048 | inactive: -0.046 | inactive: -0.018 | inactive: 0.063 | inactive: -0.036 | inactive: -0.028 | inactive: 0.072
POLR2M (UniProt P0CAP2) | inactive: -0.029 | inactive: -0.015 | inactive: -0.011 | inactive: 0.034 | inactive: 0.055 | inactive: 0.138 | inactive: -0.051 | inactive: -0.024 | inactive: 0.035 | inactive: -0.037
POR (UniProt P16435) | inactive: -0.012 | inactive: -0.044 | inactive: 0.004 | inactive: -0.029 | inactive: -0.033 | inactive: 0.001 | inactive: 0.046 | inactive: -0.036 | inactive: -0.004 | inactive: -0.041
PLRG1 (UniProt O43660) | inactive: 0.027 | inactive: 0.002 | inactive: 0.006 | inactive: -0.03 | inactive: 0.017 | inactive: 0.04 | inactive: -0.054 | inactive: -0.096 | inactive: 0.077 | inactive: -0.017
PMPCA (UniProt Q10713) | inactive: 0.063 | inactive: 0.016 | inactive: 0.024 | inactive: 0.057 | active: 0.54 | inactive: -0.096 | inactive: 0.067 | inactive: 0.04 | active: 0.285 | inactive: 0.087
PNP (UniProt P00491) | inactive: -0.036 | inactive: -0.005 | inactive: 0.013 | inactive: -0.003 | inactive: 0.049 | inactive: -0.004 | inactive: 0.017 | inactive: 0.005 | inactive: 0.034 | inactive: 0.039
PPIA isoform 2 (UniProt P62937) | inactive: 0.026 | inactive: -0.074 | inactive: -0.297 | inactive: 0.026 | inactive: 0.123 | inactive: -0.146 | inactive: -0.061 | inactive: 0.001 | inactive: 0.044 | inactive: 0.14
POLD3 (UniProt Q15054) | inactive: 0.846 | inactive: 0.058 | inactive: -0.014 | inactive: -0.052 | inactive: -0.068 | inactive: 0.096 | inactive: 0.028 | inactive: 0.044 | inactive: -0.01 | inactive: 0.024
POLA1 (UniProt P09884) | inactive: 0.021 | inactive: 0.021 | inactive: -0.043 | inactive: -0.033 | inactive: -0.173 | inactive: 0.01 | inactive: 0.019 | inactive: 0.014 | inactive: -0.091 | inactive: 0.064
PLG (UniProt P00747) | inactive: 0.043 | inactive: -0.049 | inactive: -0.176 | inactive: 0.099 | inactive: 0 | inactive: 0.109 | inactive: 0.222 |  | inactive: -0.004 | 
PLS1 (UniProt Q14651) | inactive: -0.012 | inactive: 0.05 | inactive: -0.011 | inactive: -0.076 | inactive: -0.088 | inactive: -0.002 | inactive: 0.017 | inactive: 0.008 | inactive: -0.083 | inactive: 0.105
POLQ (UniProt O75417) | inactive: -0.03 | inactive: -0.005 | inactive: -0.145 | inactive: -0.108 |  | inactive: -0.054 |  | inactive: 0.025 |  | inactive: 0.067
POLG2 (UniProt Q9UHN1) | inactive: -0.002 | inactive: -0.028 | inactive: 0 | inactive: 0.075 | inactive: 0.039 | inactive: 0.013 | inactive: -0.018 | inactive: -0.038 | inactive: 0.047 | inactive: 0.021
PMVK (UniProt Q15126) | inactive: 0.057 | inactive: -0.203 | inactive: -0.214 | inactive: -0.064 | inactive: -0.308 | inactive: -0.139 | inactive: -0.098 |  |  | inactive: -0.025
POLE (UniProt Q07864) | inactive: -0.029 | inactive: -0.034 |  |  |  |  | inactive: -0.287 | inactive: 0.099 |  | 
PLP2 (UniProt Q04941) | inactive: -0.054 | inactive: 0.067 | inactive: 0.04 | inactive: 0.013 | inactive: -0.017 | inactive: 0.073 | inactive: 0.012 |  | inactive: 0.134 | inactive: 0.111
PLIN2 (UniProt Q99541) | inactive: -0.326 | inactive: 0.037 | inactive: 0.184 | inactive: 0.03 | inactive: -0.219 | inactive: 0.04 | inactive: -0.016 | inactive: 0.047 | inactive: -0.105 | inactive: 0.027

Target | log2 fold change [1] | log2 fold change [2] | log2 fold change [3] | log2 fold change [4] | log2 fold change [5] | log2 fold change [6] | log2 fold change [7] | log2 fold change [8] | log2 fold change [9] | log2 fold change [10]
PPIL2 (UniProt Q13356) | inactive: -0.008 | inactive: 0.032 | inactive: -0.056 | inactive: -0.086 | inactive: -0.127 | inactive: 0.068 | inactive: 0.03 | inactive: 0.046 | inactive: -0.142 | inactive: 0.011
POMGNT2 (UniProt Q8NAT1) | inactive: 0.254 | inactive: -0.052 |  |  | inactive: 0.071 |  | inactive: 0.158 |  | inactive: 0.165 | inactive: 0.012
POLR2C (UniProt P19387) | inactive: 0.012 |  | inactive: -0.042 | inactive: 0.073 | inactive: -0.031 | active: 0.3 | inactive: 0.003 | inactive: -0.06 | inactive: -0.081 | inactive: -0.097
PPHLN1 (UniProt Q8NEY8) | inactive: -0.075 | inactive: 0.001 |  |  | inactive: 0 |  |  | inactive: -0.046 | inactive: 0.187 | inactive: 0.147
POLR2M (UniProt Q6EEV4) | inactive: -0.215 |  | inactive: 0.107 | inactive: -0.016 | inactive: -0.003 | inactive: -0.022 | inactive: 0.135 |  | inactive: -0.095 | inactive: 0.035
POLR2B (UniProt P30876) | inactive: 0.024 | inactive: -0.005 | inactive: 0.079 | inactive: 0.054 | inactive: -0.055 | active: 0.324 | inactive: -0.054 | inactive: -0.006 | inactive: -0.029 | inactive: -0.014
PNPLA4 (UniProt P41247) | inactive: -0.339 |  | inactive: 0.128 | inactive: -0.019 | inactive: -0.165 | inactive: -0.001 | inactive: 0.156 | inactive: 0.078 | inactive: -0.039 | active: 0.826
PPIL3 isoform 2 (UniProt Q9H2H8) | inactive: -0.05 | inactive: 0.039 | inactive: 0 | inactive: 0.106 | inactive: 0.023 | inactive: -0.01 |  | inactive: 0.074 | inactive: -0.106 | 
POLR2J (UniProt P52435) | inactive: -0.009 | inactive: -0.129 | inactive: 0.081 | inactive: 0.008 | inactive: -0.068 | inactive: 0.145 | inactive: 0.071 |  |  | inactive: 0.007
PNPLA6 (UniProt Q8IY17) | inactive: -0.134 |  | inactive: 0.172 | inactive: 0.312 | inactive: 0.083 | inactive: -0.227 | inactive: 0.135 | inactive: 0.078 | inactive: -0.144 | inactive: 0.138
PNO1 (UniProt Q9NRX1) | inactive: 0.237 | inactive: 0.077 | inactive: -0.128 | inactive: 0.14 | inactive: 0.008 | inactive: -0.005 | inactive: -0.033 | inactive: -0.068 | inactive: -0.082 | inactive: -0.004
PPIC (UniProt P45877) | inactive: -0.051 | inactive: -0.129 | inactive: -0.039 | inactive: -0.032 | inactive: -0.109 | inactive: -0.015 | inactive: -0.195 |  | inactive: 0.077 | inactive: -0.036
PPFIA2 (UniProt O75334) | inactive: -0.085 | inactive: -0.082 | inactive: -0.077 | inactive: 0 | inactive: -0.032 | inactive: -0.139 | inactive: -0.067 | inactive: -0.086 | inactive: -0.091 | inactive: 0.148
PLXNA3 (UniProt P51805) | inactive: 0.045 | inactive: -0.073 |  |  | inactive: 0 |  |  |  |  | inactive: 0.027
POLE4 (UniProt Q9NR33) | inactive: -0.019 | inactive: 0.069 | inactive: -0.009 | inactive: -0.01 |  | inactive: -0.009 | inactive: 0.158 |  | inactive: -0.107 | inactive: 0.002
PMF1 (UniProt Q6P1K2) | inactive: -0.059 | inactive: -0.086 | inactive: 0.14 | inactive: -0.046 | inactive: -0.083 | inactive: 0.124 | inactive: 0.056 | inactive: 0.038 | inactive: -0.043 | inactive: 0.077

Quoted from the listing (2 entries):
Target | log2 fold change [1] | log2 fold change [2] | log2 fold change [3] | log2 fold change [4] | log2 fold change [5] | log2 fold change [6] | log2 fold change [7] | log2 fold change [8] | log2 fold change [9] | log2 fold change [10]
PPIL3 isoform 2 (UniProt Q9H2H8) | inactive: -0.05 | inactive: 0.039 | inactive: 0 | inactive: 0.106 | inactive: 0.023 | inactive: -0.01 |  | inactive: 0.074 | inactive: -0.106 | 
POLR2J (UniProt P52435) | inactive: -0.009 | inactive: -0.129 | inactive: 0.081 | inactive: 0.008 | inactive: -0.068 | inactive: 0.145 | inactive: 0.071 |  |  | inactive: 0.007
